Consider one molecule from article PMC4947154.

The chains behind the UniProt entries cited, without tags or fusion partners. Residues count along the entry.
CD320 extracellular domain, residues 53-199 (crystallization construct) (Q9NPF0, residues 53-199): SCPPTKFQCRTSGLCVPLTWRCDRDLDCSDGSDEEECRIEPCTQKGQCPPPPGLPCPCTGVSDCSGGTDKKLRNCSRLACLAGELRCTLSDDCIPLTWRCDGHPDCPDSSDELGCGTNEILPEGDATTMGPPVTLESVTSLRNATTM
CD320 LDLR-A1 domain (residues 53-95) (Q9NPF0, residues 53-95): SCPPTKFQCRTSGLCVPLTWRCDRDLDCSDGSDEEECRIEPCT
CD320 LDLR-A2 domain (residues 125-199), in complex with TC (Q9NPF0, residues 125-199): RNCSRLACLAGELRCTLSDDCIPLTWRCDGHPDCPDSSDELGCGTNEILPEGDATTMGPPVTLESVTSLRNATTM

Results are given in words; binding and its absence hold for the method and conditions named. Some binding calls cover weakened binding; strength is not graded here.

Experiment [1] deals with CD320 extracellular domain, residues 53-199 (crystallization construct) (human) (UniProt Q9NPF0). The experiment is described as follows: crystal structure; co-crystals of the purified complex, sitting drop, 20 °C; both purified.
The target of experiment [2] is CD320 LDLR-A1 domain (residues 53-95) (human) (UniProt Q9NPF0). The experiment in a line: co-expression and co-purification; TC construct and His9-MBP-CD320 construct co-expressed and secreted from Sf21 cells, complex captured from the medium on Ni-NTA through the receptor's tag.
Experiment [3] deals with CD320 LDLR-A2 domain (residues 125-199), in complex with TC (human) (UniProt Q9NPF0). The experiment is described as above.
Experiment [4] has the same target. The experiment in a line: SEC; purified complexes, 0.5-1 mg/ml in 20 mM Tris pH 7.5, 0.5 mM CaCl2, 150 mM NaCl, G3000SWxl column at 4 °C, after heating for 10 min at selected temperatures (thermostability; also with 10 mM EGTA without Ca2+); SEC profiles of purified complexes; both purified. A general note: Size exclusion chromatography separates by hydrodynamic size, large species first.

B1: human transcobalamin (holo-TC, cyanocobalamin-bound) (protein, UniProt P20062 19-427)
chain: EMCEIPEMDSHLVEKLGQHLLPWMDRLSLEHLNPSIYVGLRLSSLQAGTKEDLYLHSLKLGYQQCLLGSAFSEDDGDCQGKPSMGQLALYLLALRANCEFVRGHKGDRLVSQLKWFLEDEKRAIGHDHKGHPHTSYYQYGLGILALCLHQKRVHDSVVDKLLYAVEPFHQGHHSVDTAAMAGLAFTCLKRSNFNPGRRQRITMAIRTVQEEILKAQTPEGHFGNVYSTPLALQFLMTSPMRGAELGTACLKARVALLASLQDGAFQNALMISQLLPVLNHKTYIDLIFPDCLAPRVMLEPAAETIPQTQEIISVTLQVLSLLPPYRQSISVLAGSTVEDVLKKAHELGGFTYETQASLSGPYLTSVMGKAAGEREFWQLLRDPNTPLLQGIADYRPKDGETIELRLVSW
Take B1: the binding entry is “binds” in experiment [1], “binds weakly” in experiment [2], “binds” in experiment [3] and “binds” in experiment [4].
